Measured values as given in patent publication US20140011978A1.
No constants are given. Whether binding was seen depends on the method and setting. Some entries that bind do so weakly or less than the wild type.

Amino acid sequences for entries named in this document (tags omitted). A change or cut given only in a name is not applied to a line headed by its entry. Chains listed by the source or under a name are the forms on record and can include a tag or linker. Residues count along the entry.
UniProt P24593, residues 21-272: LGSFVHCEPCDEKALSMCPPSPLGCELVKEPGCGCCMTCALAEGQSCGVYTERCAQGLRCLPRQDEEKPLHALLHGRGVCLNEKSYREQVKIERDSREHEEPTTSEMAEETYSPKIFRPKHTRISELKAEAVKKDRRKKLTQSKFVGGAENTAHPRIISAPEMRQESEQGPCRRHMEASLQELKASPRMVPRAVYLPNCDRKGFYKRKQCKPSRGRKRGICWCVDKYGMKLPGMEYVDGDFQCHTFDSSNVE
UniProt P01137, residues 279-390: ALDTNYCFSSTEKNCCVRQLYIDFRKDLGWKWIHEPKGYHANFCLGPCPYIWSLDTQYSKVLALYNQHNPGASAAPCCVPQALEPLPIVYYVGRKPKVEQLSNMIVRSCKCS
UniProt P01127, residues 82-190: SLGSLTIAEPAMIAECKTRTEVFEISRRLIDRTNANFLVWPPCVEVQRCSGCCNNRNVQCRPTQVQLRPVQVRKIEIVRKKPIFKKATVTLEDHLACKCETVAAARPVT
UniProt P09038, residues 135-288: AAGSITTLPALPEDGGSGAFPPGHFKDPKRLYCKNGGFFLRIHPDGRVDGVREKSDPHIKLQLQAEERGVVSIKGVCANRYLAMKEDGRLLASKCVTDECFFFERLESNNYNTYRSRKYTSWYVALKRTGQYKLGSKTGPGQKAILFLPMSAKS
UniProt P17936, residues 28-291: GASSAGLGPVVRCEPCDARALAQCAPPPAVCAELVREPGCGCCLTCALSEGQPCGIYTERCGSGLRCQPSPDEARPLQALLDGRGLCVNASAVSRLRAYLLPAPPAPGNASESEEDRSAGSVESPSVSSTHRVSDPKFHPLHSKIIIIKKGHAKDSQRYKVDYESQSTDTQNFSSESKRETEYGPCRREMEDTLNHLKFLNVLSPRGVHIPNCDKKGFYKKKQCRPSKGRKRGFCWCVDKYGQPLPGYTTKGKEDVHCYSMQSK
VEGF-A165 (P15692, form named): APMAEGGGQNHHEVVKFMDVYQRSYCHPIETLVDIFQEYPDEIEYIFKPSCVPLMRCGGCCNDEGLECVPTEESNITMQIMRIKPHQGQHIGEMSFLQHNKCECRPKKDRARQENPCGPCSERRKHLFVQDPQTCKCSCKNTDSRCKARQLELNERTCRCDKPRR

Columns and labels:
[1] = target: T1, VEGF-B (UniProt P49765); experiment: ELISA, cytokine coated, Fg β15-66 in solution (methods as Example 3)
T1 sequence (looked up): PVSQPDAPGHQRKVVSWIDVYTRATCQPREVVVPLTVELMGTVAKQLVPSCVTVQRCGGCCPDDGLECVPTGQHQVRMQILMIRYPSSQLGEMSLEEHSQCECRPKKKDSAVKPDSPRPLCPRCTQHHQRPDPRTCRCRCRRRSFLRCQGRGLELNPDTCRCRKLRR

[2] = target: T2, FGF-10 (UniProt O15520); experiment: ELISA: growth factor coated, Fg fragment in solution, A450 (methods analogous to Example 3)
T2 sequence (looked up): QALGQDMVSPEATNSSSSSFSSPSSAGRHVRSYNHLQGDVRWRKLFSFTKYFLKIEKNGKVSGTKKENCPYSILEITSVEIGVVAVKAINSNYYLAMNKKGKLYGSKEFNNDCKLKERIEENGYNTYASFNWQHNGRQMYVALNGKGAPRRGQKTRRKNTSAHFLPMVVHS

[3] = target: IGF-BP5 (UniProt P24593); experiment: as above
[4] = target: T3, PlGF-2 (UniProt P49763); experiment: as above
T3 sequence (looked up): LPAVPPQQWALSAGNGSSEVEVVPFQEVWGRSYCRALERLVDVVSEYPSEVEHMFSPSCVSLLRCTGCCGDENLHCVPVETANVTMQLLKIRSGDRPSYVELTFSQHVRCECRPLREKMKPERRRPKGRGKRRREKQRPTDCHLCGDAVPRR

[5] = target: T4, FGF-7 (UniProt P21781); experiment: as above
T4 sequence (looked up): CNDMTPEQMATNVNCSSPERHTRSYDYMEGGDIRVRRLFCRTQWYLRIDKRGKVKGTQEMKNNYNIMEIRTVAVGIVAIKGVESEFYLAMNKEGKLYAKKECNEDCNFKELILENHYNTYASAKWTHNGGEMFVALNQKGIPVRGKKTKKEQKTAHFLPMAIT

[6] = target: T5, NT-3 (UniProt P20783); experiment: as above
T5 sequence (looked up): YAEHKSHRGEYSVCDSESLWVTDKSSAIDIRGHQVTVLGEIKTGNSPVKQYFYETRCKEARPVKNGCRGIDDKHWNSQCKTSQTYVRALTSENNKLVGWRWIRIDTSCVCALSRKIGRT

[7] = target: TGF-β1 (UniProt P01137); experiment: as above
[8] = target: T6, BMP-2 (UniProt P12643); experiment: as above
T6 sequence (looked up): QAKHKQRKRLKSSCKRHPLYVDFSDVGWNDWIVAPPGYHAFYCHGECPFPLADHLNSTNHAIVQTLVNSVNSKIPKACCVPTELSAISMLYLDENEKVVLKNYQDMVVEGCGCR

[9] = target: PDGF-BB (UniProt P01127); experiment: as above
[10] = target: T7, BDNF (UniProt P23560); experiment: as above
T7 sequence (looked up): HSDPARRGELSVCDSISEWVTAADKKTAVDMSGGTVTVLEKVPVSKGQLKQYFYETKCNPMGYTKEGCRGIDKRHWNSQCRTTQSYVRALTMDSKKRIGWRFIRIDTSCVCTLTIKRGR

[11] = target: FGF-2 (UniProt P09038); experiment: as above
[12] = target: PDGF-DD (UniProt Q9GZP0); experiment: as above
[13] = target: IGF-BP3 (UniProt P17936); experiment: as above
[14] = target: T8, TGF-β2 (UniProt P61812); experiment: as above
T8 sequence (looked up): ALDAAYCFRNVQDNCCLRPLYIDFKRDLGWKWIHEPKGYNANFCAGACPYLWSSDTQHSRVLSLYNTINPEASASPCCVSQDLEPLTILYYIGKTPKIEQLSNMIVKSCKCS

[15] = target: VEGF-A165 (UniProt P15692); experiment: as above

Measured: binding

B1: Fg β15-66 (protein)
chain: GSNQEQVSPLGHRPLDKKREEAPSLRPAPPPISGGGYRARPAKAAATQKKVERKAPDAGGCGHHHHHH
binds: [1]

B2: Fg β1-66 (protein)
fibrinogen Bβ chain fragment: QGVNDNEEGFFSARGHRPLDKKREEAPSLRPAPPPISGGGYRARPAKAAATQKKVERKAPDAGGCG
binds: [2] | [3] | [4] | [5] | [6] | [7] | [8] | [9] | [10] | [11] | [12] | [13] | [14] | [15]
